According to the RNAGym collection of RNA variant scans (doi:10.1126/science.aae0568):
Variants at the background level are over-represented here.

B1: tRNA (parent)
chain: GUUCCGUUGGCGUAAUGGUAACGCGUCUCCCUCCUAAGGAGAAGACUGCGGGUUCGAGUCCCGUACGGAACG

Variants of: B1
Experiment: yeast fitness relative to wild type (ratio to wild type); higher = fitter; tRNA-Arg(CCU), competitive growth, 37 C, YPD
Summary of the method: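 Amplicons of the tRNA-Arg(CCU) gene were sequenced, 100-nucleotide paired-end, from the start population and from each end population of a pooled yeast competition. The competition, in six parallel replicates, lasted 24 hours in YPD at 37°C. Fitness relative to wild type was calculated from changes in genotype frequencies. Genotypes had to have ≥ 100 starting reads, and estimates < 0.5 were set to 0.5.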

| Variant | yeast fitness |
| --- | --- |
| GUCCCGUUGGCGUAAAGGUUACGGGUCUCCCUGCUAAGGAGAAGACUGCGGGUUCGAGUCACGUACCGAACG [U3C U16A A20U C24G C33G C61A G67C] | ≤ 0.5 |
| GUACGGUUGGCGUAAUGGUAACGCGUCUCCCUCCUAAGGAGAAGACUGCGGGUUCUAGUCCCGUACGGAACG [U3A C5G G56U] | ≤ 0.5 |
| GUUUCGUUGGCGUAAUGGUAACGCGCCUCCCUCCUAAGGAGUAGACUGCCGGUUCGAGUCCCGUUCGGAACG [C4U U26C A42U G50C A65U] | 0.552 |
| GUUCCGUUGGCGGAAUGGUAACGCGUCUCGCUCCUAAGGGGAAGACUGCCCGUUCGAGUCCCGUACGGAACG [U13G C30G A40G G50C G51C] | ≤ 0.5 |
| GUUCCGUUGGCGUAAUGGUAGCGCGUCUCCCUGCUAAAGAGAAGACUGCGGGUUCGUGUCCUGUACGGAACG [A21G C33G G38A A57U C62U] | ≤ 0.5 |
| GUUCCGUUGGCGUAUUGGUGACGCGUUUCCCUCCUAAGGAGAAGACUGCGGGUUCGAGUCCCGUACGGAACG [A15U A20G C27U] | ≤ 0.5 |
| GUUCCGAUGGCGUAAUGGUAACGCGUCUCCCUCCUAAGGAGAAGACUGCGGAUUCGAGUCCCGUACGGAACG [U7A G52A] | 0.582 |
| GUUCCGUUGGCGUAAUGGUAACGCGUCUCCCUCCUAAGGAGAAGAAGGCAGGUUCGAGUCCCGUACGGAACG [C46A U47G G50A] | 0.544 |
| GUUCGGUUGGCGUAAUGGUAACGCGUCUCCCUCAUAAGGAGAAGACUGCGGGUUCGAGUCCCGUAUGGAACG [C5G C34A C66U] | ≤ 0.5 |
| GUUCCGCUGGGGUAAUGGUAACGCGUCUCCAUCCUAAGAAGAAGACUACGGGUUCGAGUCUCGUCCGGAACG [U7C C11G C31A G39A G48A C61U A65C] | ≤ 0.5 |
| GUUCCGUUGGCGUAAUGGGAACGCGUCUCCCUCCUAAGGAGAAGACUACGGGUUCGAGUCCCGUAAGGAACG [U19G G48A C66A] | ≤ 0.5 |
| GUUCCGUUGGCGUAAUCGUAACGCGUCUCCCUCCUAAGGAGAAACCUGCGGGUUCGAGUCCCGUACGGAACG [G17C G44A A45C] | ≤ 0.5 |
| GUUCCGUUCGCGUAAUGGUGACGCGUCUCCCUCCUAAGGAGUACACUGCCGGUUCGAGUCCCGUACGGAACG [G9C A20G A42U G44C G50C] | ≤ 0.5 |
| GUUCCGUUGGCGUACUGGUAACGCGUCUCCUUCCUAAAGAGAAGACUGCGGGUUCCAGUCCCGUACGGAUCG [A15C C31U G38A G56C A70U] | 0.581 |
| GGUCCGUUGGCGUUAUGGUAAGGCGUCUCGCUCCUAAGGAGAAGACUGCGGGUUCGAAUCCCGUACGGAACG [U2G A14U C22G C30G G58A] | ≤ 0.5 |
| GUUCCGUUGGCGUAAUGCUUACGCGUCUCCCUCCUAAGGAGAAGACUGCGGGCUCGAGUCCCGUACGGUACG [G18C A20U U53C A69U] | ≤ 0.5 |
| GUUCCGUGGGCGUAACGGUAUAGCGUCGCCCUCCUAAGGAGAAGACUGCGGGUUCGAGUCCCGUCCGGAACG [U8G U16C A21U C22A U28G A65C] | ≤ 0.5 |
| GUUCCGUUGGCGUAAUGGUAACGCGUCUGCCUCCUUAGGAGGAGACUGCGGGUUAGAGUCCCGUACGGAACG [C29G A36U A42G C55A] | ≤ 0.5 |
| GUUCCGUUGGCGUAAUGGUAACGCGACUCCCUCCUAAGGCGAAGACUGCGGGUACGAGUCCCGUACGGAACG [U26A A40C U54A] | ≤ 0.5 |

| Variant | yeast fitness |
| --- | --- |
| GUCCCGUUGGCGUAAUGGUAACGUGUCUCCCUCCUAAGGAGAAGACUGCGGGUUCAAGUCCCGUACGGAACG [U3C C24U G56A] | 0.757 |
| GUUCUGUUGGCGUGAUGGUAACGCGUCUCCCUCCUAAGGAGAAGACUGCGGGUUCGAGUCCCGUACAGAACG [C5U A14G G67A] | 0.642 |
| GUUCCGUUGGCGUAAUGGUAACGCGUCUCCCUCCUAAGCAGAAGAGUGGGGGUUCGAGUCCCGUACGGAACG [G39C C46G C49G] | ≤ 0.5 |
| GUUAUGUUGGCGUAAUAGUAACGCGUCUCCCUCCUAAGGAGAAGACUGCGGGUUCGAGUCCCGUACGGAGCG [C4A C5U G17A A70G] | ≤ 0.5 |
| GUUCCGUUGGCGUUAUGGUAACGCGUCUCGCUCCUAAGGGGAAGACUGCGGGUUCGAGUCCCGUACGGAACG [A14U C30G A40G] | ≤ 0.5 |
| GUUCCGUUGGCGAAGUGGUAACGCGUCUGGCUCCUAAGGAGAAGACUGAGGGUUCCAGUCUCGUACGGAACG [U13A A15G C29G C30G C49A G56C C61U] | ≤ 0.5 |
| GUUCCGUUGGCGUACUGGUAACGCGUCUCCCUCCUAAGGAGAAGACUGCGGGUUCGACUCCCAUACGGAACG [A15C G58C G63A] | ≤ 0.5 |
| GUUCCGUUGGCGUAGUGGUAACGGGUCUCCCUCCUAAGGAGAAGACUGUGGGUUCGAGUCCCAUACGAAACG [A15G C24G C49U G63A G68A] | ≤ 0.5 |
| GUUCCGUUGGCGUAAUGGAAACGCGUCUCCCUCCUAAGGAGAAGAUUGCGGGUUCGCGUCCCGUACGGACCG [U19A C46U A57C A70C] | ≤ 0.5 |
| GUUCCGUUGGCGUUAUGGUAACGCGUCUCCGUCCUAAGGAGAAGACUGUGGGUUUGAGUCCCGUACGGAACG [A14U C31G C49U C55U] | ≤ 0.5 |
| GUUCCGUUGGCGUAAUGGUCACGCGUUUCCCUCGUAAGGAGACGACUGCGGGUUCGAGUCUGGUACGGAACG [A20C C27U C34G A43C C61U C62G] | ≤ 0.5 |
| GUUCCGUUGGCGUAAUGGUAACGCGUCUCCCUACCAAGGAGAAGACUGCGGGUUCGAGUCCCGUACGGAACG [C33A U35C] | ≤ 0.5 |
| GAUCCGUUGGAGUAAUGGUAACGCGUCUCCCUCCUAAGGAGAAGACUGCGAGUUCGAGUCACGUACGGAACG [U2A C11A G51A C61A] | ≤ 0.5 |
| GUUCCGUUGGCGUCAUGGUAAGGCGUCUCCCUCCUAAGGAGAAGACUGCGGGUUCGAGUCCCGUACAGAACG [A14C C22G G67A] | ≤ 0.5 |
| GUUCCGUUGGCGCAAUGGUAACGCGUCUUCCUCCUAAGGAGAAGACUGCGGGCUCCAGUCCCGUACGGAACG [U13C C29U U53C G56C] | ≤ 0.5 |
| GUCCCGUUGGCGUACUGGUAACGCGUCUCCCUCCUAAGGAGAAGACUGCGGGUUCGAGUCCCGUCCGGAACG [U3C A15C A65C] | ≤ 0.5 |
| GUUCCGUAGGCGUAAUGGUAACGCGUCUCCCUCCUAACGAGAAGACUACGGGUUCGAGUCCCGUACGGAACG [U8A G38C G48A] | ≤ 0.5 |
| GUUCCGCUGGCGUAAUGGUAACGCGUCUCCCACCUAAGGAGAAGUCUGCGGGUUCGAGUCCCGUACUGGACG [U7C U32A A45U G67U A69G] | ≤ 0.5 |
